Article PMC11417400
Results are given in words; binding and its absence hold for the method and conditions named. Sequences can lack the tags named with a protein.

Biological target: RudS_KT (tRNA 4-thiouridine desulfidase, TudS-DUF1722 fusion protein from Pseudomonas putida KT2440, PP_0741 gene product) (Pseudomonas putida KT2440) (UniProt Q88PV7)
Assay: SEC; analytical gel filtration, Superose 12 10/300 GL, 50 mM Tris-HCl pH 8, 500 mM NaCl, 10% (w/v) glycerol, aerobic conditions; calibrated with standards of 29-200 kDa; repeated three times; both purified

B1: RudS_KT (tRNA 4-thiouridine desulfidase, TudS-DUF1722 fusion protein from Pseudomonas putida KT2440, PP_0741 gene product) (enzyme, UniProt Q88PV7 1-322)
chain: MHDPSAHSKPRIAISACLTGHSVRYNGGHKASDLCRKQLEQHFDWLPVCPEVAIGLGVPRDPIRLVGNPEQPEVVGTRDPGKDLTDPLRTYGEQMANELDDICGYIFMQKSPSCGLERVKVYQDNGHPAVHGGRGVYAQAFCALRPDLPVEEEGRLHDPVLRENFISRVYAYADWQRLLAEGLNRGALVRFHSRYKYLLMANNPQAYRTLGRLLGSMSKADEPQSIGPRYFSQLMQALRRCASRGTHSNVLQHLSGYFKDALTQQDKAELQAVIGQYQQGVVPLVVPLTLLKHHLRKHPDPYLQQQAYLQPHPESLGLRNAV
binding: no binding
